These are yes or no findings as the source states them, for the method shown. Binding seen in cells or lysates may run through a third protein. Binding can be weak; no strength is given. Sequences can lack the tags named with a protein.
Biological target: Flag-HSP70
Assay: co-IP; Flag-HSP70 and HA-KANK2 co-expressed in HEK 293T cells; RIPA lysate; anti-Flag M2 beads overnight at 4 °C; Western blot

B1: HA-KANK2 (protein, UniProt Q63ZY3 1-851)
chain: MAQVLHVPAPFPGTPGPASPPAFPAKDPDPPYSVETPYGYRLDLDFLKYVDDIEKGHTLRRVAVQRRPRLSSLPRGPGSWWTSTESLCSNASGDSRHSAYSYCGRGFYPQYGALETRGGFNPRVERTLLDARRRLEDQAATPTGLGSLTPSAAGSTASLVGVGLPPPTPRSSGLSTPVPPSAGHLAHVREQMAGALRKLRQLEEQVKLIPVLQVKLSVLQEEKRQLTVQLKSQKFLGHPTAGRGRSELCLDLPDPPEDPVALETRSVGTWVRERDLGMPDGEAALAAKVAVLETQLKKALQELQAAQARQADPQPQAWPPPDSPVRVDTVRVVEGPREVEVVASTAAGAPAQRAQSLEPYGTGLRALAMPGRPESPPVFRSQEVVETMCPVPAAATSNVHMVKKISITERSCDGAAGLPEVPAESSSSPPGSEVASLTQPEKSTGRVPTQEPTHREPTRQAASQESEEAGGTGGPPAGVRSIMKRKEEVADPTAHRRSLQFVGVNGGYESSSEDSSTAENISDNDSTENEAPEPRERVPSVAEAPQLRPAGTAAAKTSRQECQLSRESQHIPTAEGASGSNTEEEIRMELSPDLISACLALEKYLDNPNALTERELKVAYTTVLQEWLRLACRSDAHPELVRRHLVTFRAMSARLLDYVVNIADSNGNTALHYSVSHANFPVVQQLLDSGVCKVDKQNRAGYSPIMLTALATLKTQDDIETVLQLFRLGNINAKASQAGQTALMLAVSHGRVDVVKALLACEADVNVQDDDGSTALMCACEHGHKEIAGLLLAVPSCDISLTDRDGSTALMVALDAGQSEIASMLYSRMNIKCSFAPMSDDESPTSSSAEE
- binding: binds

Source: article PMC8946178
